Tested on: U937 cells
Details: amiodarone 10 μM; U937 cells with no, 5 nM or 100 nM PMA for 24 h or 72 h

CCCCc1oc2ccccc2c1C(=O)c1cc(I)c(OCCN(CC)CC)c(I)c1 [amiodarone]
cell functionality to amiodarone (phospholipidosis, LipidTOX fluorescence): maintained after differentiation

— patent US20230158068A1 (priority 2020, published 2023)
